Further values from the same series stand in other lists.
Assay: General condition observation (clinical signs) in anterior chamber aqueous humor pressure load rat model
Type: in vivo, Rat; Slc: SD
Design: key: —: No anormal sign
Settings: 1 mg/mL eye drop, right eye, per animal
Method: • Species and strains: Rat; Slc: SD • Number of animals on arrival and sex: 50 males • Age in weeks at arrival: 6 weeks old • Body weight range at arrival: 147.2 to 170.0 g • Source: Japan SLC, Inc.
The body weight of the animals was measured at a frequency of once a week or more, and the general condition observation was performed every day.
• Administration route: Eyedrop administration, intravenous administration • Administration method (eyedrop): Eyedrop administration was performed on a treated eye (right eye) of a rat using a micropipette 4 times a day (at intervals of 1.5 hours or more). • Administration method (intravenous): The amount of administration solution, calculated from the body weight on the day of administration, was administered from the tail vein using a syringe and an injection needle about 30 minutes before ischemic load. • Time of administration: Administration was performed according to the following schedule.

Measured: Clinical signs

CC[C@@]1(C)Oc2cc(ccc2O)C[C@H](NC)C(=O)N[C@@H](C(C)C)C(=O)N[C@@H]1C(=O)N[C@@H](CC(=O)O)C(=O)O [Compound 9]
—: Day 7, animals 201-210 (test group 2, dosed on the 2 days before model creation) | Day 7, animals 301-310 (test group 3, dosed 13 days from the day after model creation) | Day 8, animals 201-210 (test group 2, dosed on the 2 days before model creation) | Day 8, animals 301-310 (test group 3, dosed 13 days from the day after model creation) | Day 9, animals 201-210 (test group 2, dosed on the 2 days before model creation) | Day 9, animals 301-310 (test group 3, dosed 13 days from the day after model creation) | Day 10, animals 201-210 (test group 2, dosed on the 2 days before model creation) | Day 10, animals 301-310 (test group 3, dosed 13 days from the day after model creation) | Day 11, animals 201-210 (test group 2, dosed on the 2 days before model creation) | Day 11, animals 301-310 (test group 3, dosed 13 days from the day after model creation) | Day 12, animals 201-210 (test group 2, dosed on the 2 days before model creation) | Day 12, animals 301-310 (test group 3, dosed 13 days from the day after model creation) | Day 13, animals 201-210 (test group 2, dosed on the 2 days before model creation) | Day 13, animals 301-310 (test group 3, dosed 13 days from the day after model creation) | Day 14 (day of necropsy), animals 201-210 (test group 2, dosed on the 2 days before model creation) | Day 14 (day of necropsy), animals 301-310 (test group 3, dosed 13 days from the day after model creation)
